# Measurements as given in the supplement of paper PMC8728848.
# Some of the results follow.
# B1: PX9961Q-bfa-504-27-504 (Bacteroides fragilis) (protein)
# chain: NDWLDRKPADGIPSEDAITNYNDALTARTGMYDGIQGNSNATSYYGARMFYYGDVRADDMQARTQGMRSSSCYEMLYTVDDAPNMWNIPYNVIRRANRLIEAINEKKVTDATEAQIGKIYSEALVVRALVHFDLVRIYGMPYTADNGASLGVPVIVKPLERNDLPSRNTVAEVYTQVITDLTDAINSGYLAKDQTPGYINEWAAKALLTRVYLTKGDNENALKVAEDIITNSPYKLWTNEEYVNAWYKSNGAHTNEMIFEVVNASNDDWTDRNGIAYLLNENGYADAIVTKSFMNMLSQDPKDVRIGMVLPAQYDKDLQEEYGDAKIFINKFPADKDDVGEMRLNNLPLLRLSEVYLSAAEAAAKLGGHQDKAAKYLNEIVQRANPEAKAISEADATVERIILERRKEMIGEGQRYFDALRNNETIVRYKDEGDKGYHYSLIKESQSFDRTYFRAILPIPVDETNVNPNLRAQQNPGY
# Assays:
# Experiment in all cases: glycan array binding signal (z-score within array); higher = stronger binding
# Conditions in all cases: glycan notation: IUPAC condensed, linker removed
# [1] = target: Neu5Ac(a2-6)Gal(b1-3)GlcNAc(b1-3)[Gal(b1-4)GlcNAc(b1-6)]Gal(b1-4)Glc
# Procedure, shortened: (§1)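 Columns mapping to the same glycan were averaged after glycan names were converted to IUPAC-condensed notation. The data come from 3228 arrays in the Consortium for Functional Glycomics database, limited to those with an available protein sequence. Binding is reported as a within-array Z-score averaged across arrays of one protein sequence and across linkers.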
# Neu5Ac(a2-6)Gal(b1-4)Glc = target: Neu5Ac(a2-6)Gal(b1-4)Glc
# Procedure, shortened: as §1
# [2] = target: Neu5Ac(a2-6)Gal(b1-4)GlcNAc
# Procedure, shortened: as §1
# [3] = target: Neu5Ac(a2-6)Gal(b1-4)GlcNAc(b1-2)Man
# Procedure, shortened: as §1
# [4] = target: Neu5Ac(a2-6)Gal(b1-4)GlcNAc(b1-2)Man(a1-3)Man(b1-4)GlcNAc(b1-4)GlcNAc
# Procedure, shortened: as §1
# [5] = target: Neu5Ac(a2-6)Gal(b1-4)GlcNAc(b1-2)Man(a1-3)[Gal(b1-4)GlcNAc(b1-2)Man(a1-6)]Man(b1-4)GlcNAc(b1-4)GlcNAc
# Procedure, shortened: as §1
# [6] = target: Neu5Ac(a2-6)Gal(b1-4)GlcNAc(b1-2)Man(a1-3)[GlcNAc(b1-2)Man(a1-6)]Man(b1-4)GlcNAc(b1-4)GlcNAc
# Procedure, shortened: as §1
# [7] = target: Neu5Ac(a2-6)Gal(b1-4)GlcNAc(b1-2)Man(a1-3)[GlcNAc(b1-4)][Neu5Ac(a2-6)Gal(b1-4)GlcNAc(b1-2)Man(a1-6)]Man(b1-4)GlcNAc(b1-4)GlcNAc
# Procedure, shortened: as §1
# [8] = target: Neu5Ac(a2-6)Gal(b1-4)GlcNAc(b1-2)Man(a1-3)[Man(a1-6)]Man(b1-4)GlcNAc(b1-4)GlcNAc
# Procedure, shortened: as §1
# [9] = target: Neu5Ac(a2-6)Gal(b1-4)GlcNAc(b1-2)Man(a1-3)[Neu5Ac(a2-3)Gal(b1-4)GlcNAc(b1-2)Man(a1-6)]Man(b1-4)GlcNAc(b1-4)GlcNAc
# Procedure, shortened: as §1
# [10] = target: Neu5Ac(a2-6)Gal(b1-4)GlcNAc(b1-2)Man(a1-3)[Neu5Ac(a2-6)Gal(b1-4)GlcNAc(b1-2)Man(a1-6)]Man(b1-4)GlcNAc(b1-4)GlcNAc
# Procedure, shortened: as §1
# [11] = target: Neu5Ac(a2-6)Gal(b1-4)GlcNAc(b1-2)Man(a1-3)[Neu5Ac(a2-6)Gal(b1-4)GlcNAc(b1-2)Man(a1-6)]Man(b1-4)GlcNAc(b1-4)[Fuc(a1-6)]GlcNAc
# Procedure, shortened: as §1
# [12] = target: Neu5Ac(a2-6)Gal(b1-4)GlcNAc(b1-2)Man(a1-6)Man(b1-4)GlcNAc(b1-4)GlcNAc
# Procedure, shortened: as §1
# [13] = target: Neu5Ac(a2-6)Gal(b1-4)GlcNAc(b1-2)Man(a1-6)[Gal(b1-4)GlcNAc(b1-2)Man(a1-3)]Man(b1-4)GlcNAc(b1-4)GlcNAc
# Procedure, shortened: as §1
# [14] = target: Neu5Ac(a2-6)Gal(b1-4)GlcNAc(b1-2)Man(a1-6)[GlcNAc(b1-2)Man(a1-3)]Man(b1-4)GlcNAc(b1-4)GlcNAc
# Procedure, shortened: as §1
# [15] = target: Neu5Ac(a2-6)Gal(b1-4)GlcNAc(b1-2)Man(a1-6)[Man(a1-3)]Man(b1-4)GlcNAc(b1-4)GlcNAc
# Procedure, shortened: as §1
# [16] = target: Neu5Ac(a2-6)Gal(b1-4)GlcNAc(b1-2)[Neu5Ac(a2-6)Gal(b1-4)GlcNAc(b1-4)]Man(a1-3)[GlcNAc(b1-4)][Neu5Ac(a2-6)Gal(b1-4)GlcNAc(b1-2)[Neu5Ac(a2-6)Gal(b1-4)GlcNAc(b1-6)]Man(a1-6)]Man(b1-4)GlcNAc(b1-4)GlcNAc
# Procedure, shortened: as §1
# [17] = target: Neu5Ac(a2-6)Gal(b1-4)GlcNAc(b1-2)[Neu5Ac(a2-6)Gal(b1-4)GlcNAc(b1-4)]Man(a1-3)[GlcNAc(b1-4)][Neu5Ac(a2-6)Gal(b1-4)GlcNAc(b1-4)Man(a1-6)]Man(b1-4)GlcNAc(b1-4)GlcNAc
# Procedure, shortened: as §1
# [18] = target: Neu5Ac(a2-6)Gal(b1-4)GlcNAc(b1-2)[Neu5Ac(a2-6)Gal(b1-4)GlcNAc(b1-6)]Man(a1-6)[Neu5Ac(a2-6)Gal(b1-4)GlcNAc(b1-2)Man(a1-3)][GlcNAc(b1-4)]Man(b1-4)GlcNAc(b1-4)GlcNAc
# Procedure, shortened: as §1
# [19] = target: Neu5Ac(a2-6)Gal(b1-4)GlcNAc(b1-3)Gal(b1-3)GlcNAc
# Procedure, shortened: as §1
# [20] = target: Neu5Ac(a2-6)Gal(b1-4)GlcNAc(b1-3)Gal(b1-4)GlcNAc
# Procedure, shortened: as §1
# [21] = target: Neu5Ac(a2-6)Gal(b1-4)GlcNAc(b1-3)Gal(b1-4)GlcNAc(b1-2)Man(a1-3)[Neu5Ac(a2-6)Gal(b1-4)GlcNAc(b1-3)Gal(b1-4)GlcNAc(b1-2)Man(a1-6)]GalNAc
# Procedure, shortened: as §1
# [22] = target: Neu5Ac(a2-6)Gal(b1-4)GlcNAc(b1-3)Gal(b1-4)GlcNAc(b1-3)Gal(b1-4)GlcNAc
# Procedure, shortened: as §1
# [23] = target: Neu5Ac(a2-6)Gal(b1-4)GlcNAc(b1-3)Gal(b1-4)GlcNAc(b1-3)Gal(b1-4)GlcNAc(b1-2)Man(a1-3)[Neu5Ac(a2-6)Gal(b1-4)GlcNAc(b1-3)Gal(b1-4)GlcNAc(b1-3)Gal(b1-4)GlcNAc(b1-2)Man(a1-6)]GalNAc
# Procedure, shortened: as §1
# [24] = target: Neu5Ac(a2-6)Gal(b1-4)GlcNAc(b1-3)Gal(b1-4)GlcNAc(b1-3)GalNAc
# Procedure, shortened: as §1
# [25] = target: Neu5Ac(a2-6)Gal(b1-4)GlcNAc(b1-3)Gal(b1-4)GlcNAc(b1-3)[Neu5Ac(a2-6)Gal(b1-4)GlcNAc(b1-3)Gal(b1-4)GlcNAc(b1-6)]GalNAc
# Procedure, shortened: as §1
# [26] = target: Neu5Ac(a2-6)Gal(b1-4)GlcNAc(b1-3)Gal(b1-4)GlcNAc(b1-6)[Gal(b1-3)]GalNAc
# Procedure, shortened: as §1
# [27] = target: Neu5Ac(a2-6)Gal(b1-4)GlcNAc(b1-3)Gal(b1-4)[Fuc(a1-3)]GlcNAc(b1-3)Gal(b1-4)[Fuc(a1-3)]GlcNAc
# Procedure, shortened: as §1
# [28] = target: Neu5Ac(a2-6)Gal(b1-4)GlcNAc(b1-3)GalNAc
# Procedure, shortened: as §1
# [29] = target: Neu5Ac(a2-6)Gal(b1-4)GlcNAc(b1-3)[Neu5Ac(a2-6)Gal(b1-4)GlcNAc(b1-6)]GalNAc
# Procedure, shortened: as §1
# [30] = target: Neu5Ac(a2-6)Gal(b1-4)GlcNAc(b1-6)GalNAc
# Procedure, shortened: as §1
# [31] = target: Neu5Ac(a2-6)Gal(b1-4)GlcNAc(b1-6)[Gal(b1-3)GlcNAc(b1-3)]Gal(b1-4)Glc
# Procedure, shortened: as §1
# [32] = target: Neu5Ac(a2-6)Gal(b1-4)GlcNAc(b1-6)[Gal(b1-3)]GalNAc
# Procedure, shortened: as §1
# [33] = target: Neu5Ac(a2-6)Gal(b1-4)GlcNAc6S
# Procedure, shortened: as §1
# Neu5Ac(a2-6)GalNAc = target: Neu5Ac(a2-6)GalNAc
# Procedure, shortened: as §1
# [34] = target: Neu5Ac(a2-6)GalNAc(b1-4)GlcNAc
# Procedure, shortened: as §1
# [35] = target: Neu5Ac(a2-6)GalNAc(b1-4)GlcNAc6S
# Procedure, shortened: as §1
# [36] = target: Neu5Ac(a2-6)GlcNAc(b1-4)GlcNAc
# Procedure, shortened: as §1
binder,measurement,setting,value
B1,glycan array binding signal (z-score),[1],6.14
same,glycan array binding signal (z-score),Neu5Ac(a2-6)Gal(b1-4)Glc,-0.12
same,glycan array binding signal (z-score),[2],-0.355
same,glycan array binding signal (z-score),[3],0.49
same,glycan array binding signal (z-score),[4],-0.505
same,glycan array binding signal (z-score),[5],-0.496
same,glycan array binding signal (z-score),[6],-0.61
same,glycan array binding signal (z-score),[7],0.048
same,glycan array binding signal (z-score),[8],-0.91
same,glycan array binding signal (z-score),[9],-0.382
same,glycan array binding signal (z-score),[10],0.054
same,glycan array binding signal (z-score),[11],-0.262
same,glycan array binding signal (z-score),[12],-0.801
same,glycan array binding signal (z-score),[13],0.613
same,glycan array binding signal (z-score),[14],-0.638
same,glycan array binding signal (z-score),[15],0.075
same,glycan array binding signal (z-score),[16],2.53
same,glycan array binding signal (z-score),[17],-0.474
same,glycan array binding signal (z-score),[18],-0.563
same,glycan array binding signal (z-score),[19],-0.346
same,glycan array binding signal (z-score),[20],-0.321
same,glycan array binding signal (z-score),[21],0.609
same,glycan array binding signal (z-score),[22],-0.019
same,glycan array binding signal (z-score),[23],1.56
same,glycan array binding signal (z-score),[24],-0.164
same,glycan array binding signal (z-score),[25],-0.372
same,glycan array binding signal (z-score),[26],-0.24
same,glycan array binding signal (z-score),[27],0.703
same,glycan array binding signal (z-score),[28],-0.107
same,glycan array binding signal (z-score),[29],-0.507
same,glycan array binding signal (z-score),[30],0.333
same,glycan array binding signal (z-score),[31],-0.328
same,glycan array binding signal (z-score),[32],-0.211
same,glycan array binding signal (z-score),[33],1.55
same,glycan array binding signal (z-score),Neu5Ac(a2-6)GalNAc,-0.776
same,glycan array binding signal (z-score),[34],0.179
same,glycan array binding signal (z-score),[35],-0.019
same,glycan array binding signal (z-score),[36],-1.06

# Laid out differently: results already given
binder	measurement	setting	value
B1	glycan array binding signal (z-score)	[25]	-0.372
same	glycan array binding signal (z-score)	[30]	0.333
